Laboratory results taken from US20070087959A1.
Results are given in words; binding and its absence hold for the method and conditions named. Some entries that bind do so weakly or less than the wild type.

By UniProt entry, the sequences of proteins in these tests, tags left out. Where a name states a change or a piece, a line headed by the entry shows the natural chain unless it says otherwise.
UniProt P06756: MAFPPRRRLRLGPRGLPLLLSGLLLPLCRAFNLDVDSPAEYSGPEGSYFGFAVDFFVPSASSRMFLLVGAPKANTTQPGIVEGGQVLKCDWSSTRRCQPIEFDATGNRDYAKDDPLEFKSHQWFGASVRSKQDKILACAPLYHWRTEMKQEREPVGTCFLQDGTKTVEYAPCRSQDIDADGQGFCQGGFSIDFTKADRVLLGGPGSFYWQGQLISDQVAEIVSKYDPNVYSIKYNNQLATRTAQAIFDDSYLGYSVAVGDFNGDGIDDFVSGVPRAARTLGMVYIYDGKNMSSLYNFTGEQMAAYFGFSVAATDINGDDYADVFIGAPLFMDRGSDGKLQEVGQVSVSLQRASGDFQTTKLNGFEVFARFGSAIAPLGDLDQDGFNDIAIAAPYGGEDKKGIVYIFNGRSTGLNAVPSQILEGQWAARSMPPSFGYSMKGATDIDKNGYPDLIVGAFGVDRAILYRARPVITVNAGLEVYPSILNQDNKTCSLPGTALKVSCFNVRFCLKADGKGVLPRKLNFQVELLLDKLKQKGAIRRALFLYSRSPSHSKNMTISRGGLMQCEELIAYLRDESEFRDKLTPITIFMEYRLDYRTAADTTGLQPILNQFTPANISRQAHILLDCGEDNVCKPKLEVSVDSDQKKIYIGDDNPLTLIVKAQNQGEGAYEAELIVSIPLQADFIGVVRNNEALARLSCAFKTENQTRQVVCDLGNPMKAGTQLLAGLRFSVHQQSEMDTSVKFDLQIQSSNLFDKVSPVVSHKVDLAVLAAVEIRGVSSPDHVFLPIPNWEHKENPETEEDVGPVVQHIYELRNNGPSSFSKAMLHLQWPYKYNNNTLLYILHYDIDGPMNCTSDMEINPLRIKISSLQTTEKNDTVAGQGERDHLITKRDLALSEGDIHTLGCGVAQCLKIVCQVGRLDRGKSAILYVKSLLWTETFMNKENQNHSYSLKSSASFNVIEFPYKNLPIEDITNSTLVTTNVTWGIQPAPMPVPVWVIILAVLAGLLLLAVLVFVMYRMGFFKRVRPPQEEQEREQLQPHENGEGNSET
UniProt P05106: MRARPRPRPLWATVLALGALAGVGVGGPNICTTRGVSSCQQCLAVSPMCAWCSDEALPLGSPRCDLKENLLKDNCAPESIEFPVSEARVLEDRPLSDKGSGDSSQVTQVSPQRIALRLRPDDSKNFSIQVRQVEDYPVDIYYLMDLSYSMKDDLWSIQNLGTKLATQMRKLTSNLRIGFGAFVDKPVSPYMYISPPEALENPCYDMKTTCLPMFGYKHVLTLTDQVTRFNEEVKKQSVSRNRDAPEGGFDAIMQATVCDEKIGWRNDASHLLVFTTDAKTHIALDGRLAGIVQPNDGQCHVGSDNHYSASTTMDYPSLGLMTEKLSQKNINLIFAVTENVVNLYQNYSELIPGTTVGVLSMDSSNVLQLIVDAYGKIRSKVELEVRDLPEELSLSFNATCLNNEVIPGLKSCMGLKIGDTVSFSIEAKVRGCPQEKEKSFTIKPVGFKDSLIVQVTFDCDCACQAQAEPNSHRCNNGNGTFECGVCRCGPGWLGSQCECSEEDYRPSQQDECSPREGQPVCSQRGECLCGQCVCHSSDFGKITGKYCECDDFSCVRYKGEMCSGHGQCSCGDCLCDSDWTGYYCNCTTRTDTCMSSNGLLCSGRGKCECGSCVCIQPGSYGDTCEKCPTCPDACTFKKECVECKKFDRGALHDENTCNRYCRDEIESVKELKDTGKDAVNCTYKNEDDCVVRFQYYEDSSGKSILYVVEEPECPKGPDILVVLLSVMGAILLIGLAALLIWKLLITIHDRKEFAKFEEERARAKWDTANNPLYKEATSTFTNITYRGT

Biological target: ανβ3 integrin on human adult mesenchymal stem cells (hMSC) (human) (UniProt P06756+P05106)
Assay: inferred from antibody blocking of rPP-induced Runx2 expression in hMSC (qPCR); no direct binding assay

B1: recombinant Phosphophoryn (rPP) (ligand)
chain: GIETEGPNKGNKSIITKESGKLSGSKDSNGHQGVELDKRNSPKQGESDKPQGTAEKSAAHSNLGHSRIGSSSNSDGHDSYEFDDESMQGDDPKSSDESNGSDESDTNSESANESGSRGDASYTSDESSDDDNDSDSHAGEDDSSDDSSGDGDSDSNGDGDSESEDKDESDSSDHDNSSDSESKSDSSDSSDDSSDSSDSSDSSDSSDSSDSSDSSDSSDSSDSNSSSDSSDSSGSSDSSDSSDTCDSSDSSDSSDSSDSSDSSDSSDSSDSSDSSDSSDSSSSSDSSDSSSCSDSSDSSDSSDSSDSSDSSDSSSSDSSSSSNSSDSSDSSDSSSSSDSSDSSDSSDSSDSSGSSDSSDSSASSDSSSSSDSSDSSSSSDSSDSSDSSDSSDSSESSDSSNSSDSSDSSDSSDSSDSSDSSDSSDSSDSSNSSDSSDSSDSSDSSDSSNSSDSSDSSDSSDSSDSSDSSDSSDSSDSSDSSDSSDSSDSSDSSDSSDSSDSSDSSDSSDSSDSSDSSNSSDSSDSDSKDSSSDSSDGDSKSGNGNSDSNSDSNSDSDSDSEGSDSNHSTSDD
binding: binds
